Data on one molecule can be found in article PMC4207043, “Distinct N-terminal regions of the exomer secretory vesicle cargo Chs3 regulate its trafficking itinerary” (Frontiers in Cell and Developmental Biology, 2014).

For the assay, the target named is T1, Recombinant "core" exomer complex (Chs5 residues 1–77 and Chs6-6xHis) (S. cerevisiae) (UniProt Q12114+P40955).
T1 sequence 1: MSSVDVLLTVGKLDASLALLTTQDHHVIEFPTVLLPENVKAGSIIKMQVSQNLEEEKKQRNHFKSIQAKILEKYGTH
T1 sequence 2: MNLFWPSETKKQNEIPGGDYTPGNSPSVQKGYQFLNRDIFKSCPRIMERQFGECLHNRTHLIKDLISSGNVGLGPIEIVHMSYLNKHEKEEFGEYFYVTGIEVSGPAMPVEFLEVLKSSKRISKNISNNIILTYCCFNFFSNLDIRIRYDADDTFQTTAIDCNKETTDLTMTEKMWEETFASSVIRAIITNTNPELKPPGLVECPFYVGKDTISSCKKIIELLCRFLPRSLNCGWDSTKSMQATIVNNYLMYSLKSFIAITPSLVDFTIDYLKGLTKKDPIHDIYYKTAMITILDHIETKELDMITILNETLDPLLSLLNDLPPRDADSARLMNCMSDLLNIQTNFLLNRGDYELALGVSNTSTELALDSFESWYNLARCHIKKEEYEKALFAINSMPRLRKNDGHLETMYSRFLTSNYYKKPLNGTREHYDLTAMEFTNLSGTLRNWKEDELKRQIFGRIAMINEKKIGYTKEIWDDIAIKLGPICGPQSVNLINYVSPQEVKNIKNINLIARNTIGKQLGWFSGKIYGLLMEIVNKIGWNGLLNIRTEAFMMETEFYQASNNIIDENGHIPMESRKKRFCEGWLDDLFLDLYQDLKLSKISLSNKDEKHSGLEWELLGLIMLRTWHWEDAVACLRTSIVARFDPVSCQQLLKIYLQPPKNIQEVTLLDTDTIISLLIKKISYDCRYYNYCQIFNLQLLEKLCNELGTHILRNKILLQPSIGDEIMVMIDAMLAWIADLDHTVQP
Briefly: crystal structure; exomer crystals soaked with the peptide; additional electron density looked for; both purified.

No constants are given. Whether binding was seen depends on the method and setting. Where a sequence is shown, tags or fusion partners need not be part of it.

For the molecule QDENEGEFDHSKIKMRTWREFEREDILNRKEESDSFVA (peptide, UniProt P29465 1128-1165) [Peptide corresponding to residues 1128–1165 of the Chs3 C-terminus], the binding entry is listed as “no binding”.
